# Assay results taken from patent US5883102A, “Pharmaceutically active compounds” (Astra Pharmaceuticals Limited, priority 1995, dated 1999).
# Where a name gives a salt, the structure may show the parent alone. Some of these results come from one statement about several compounds together.
# Biological target: T1, human form of induced nitric oxide synthase (Homo sapiens, UniProt P35228)
# T1 construct: Nitric oxide synthase is produced by cells in response to interferon; endogenous in cells; host or cells: DLD1 human colon adenocarcinoma cell line (European Collection of Animal Cell Culture, cell line number 90102540), induced with IL-1beta and IFN-gamma; crude lysate
# Experiment: activity against the human form of induced nitric oxide synthase, lysate of induced human colon adenocarcinoma cell line DLD1
# Format: biochemical
# Settings: IL-1β and IFN-γ induced, preincubated 1 hour at 37° C., then 1 hour at 37° C., read-out: IC50 (concentration of drug substance which gives 50% enzyme inhibition in the assay)
row,SMILES,IC50 [µM]
1,"NC1=NC2(CCNCC2)Nc2cccc(F)c21 [Example 240, 5'-Fluorospiro[piperidine-4,2'(1'H)-quinazoline]-4'-amine dihydrochloride]",< 25
2,"NC1=NC2(CNC2)Nc2cccc(F)c21 [Example 250, 5'-Fluorospiro[azetidine-3,2'(1'H)-quinazoline]-4'-amine]",< 25
3,"NC1=NC2(CCNCC2)Nc2ccccc21 [Example 241, Spiro[piperidine-4,2'(1'H)-quinazoline]-4'-amine dihydrochloride]",< 25
4,"NCCc1ccccc1C1N=C(N)c2ccccc2N1 (stereo not drawn) [Example 254, 2-(2-(2-Aminoethyl)phenyl)-1,2-dihydro-4-quinazolinamine dihydrochloride]",< 25

# Same assay, conditions: read-out: IC50 (concentration of drug substance which gives 50% enzyme inhibition in the assay), IL-1β and IFN-γ induced, preincubated 1 hour at 37° C., then 1 hour at 37° C.
row,SMILES,IC50 [µM]
1,"NC1=NC2(CCN(C(=O)Oc3ccccc3OCc3ccccc3)CC2)Nc2cccc(F)c21 [Example 233, 2-(?henylmethoxy)phenyl 4'-amino-5'-fluorospiro[piperidine-4,2'(1'H)-quinazoline]-1-carboxylate hydrochloride]",< 25
2,"NC1=NC2(CCN(C(=O)Oc3ccccc3)CC2)Nc2ccccc21 [Example 236, Phenyl 4'-aminospiro[piperidine-4,2'(1'H)-quinazoline]-1-carboxylate hydrochloride]",< 25
